1 substance from article PMC5775407 can be followed below.

Sequences of proteins named here, by UniProt entry; tags and fusion partners are left off.
UniProt P37231: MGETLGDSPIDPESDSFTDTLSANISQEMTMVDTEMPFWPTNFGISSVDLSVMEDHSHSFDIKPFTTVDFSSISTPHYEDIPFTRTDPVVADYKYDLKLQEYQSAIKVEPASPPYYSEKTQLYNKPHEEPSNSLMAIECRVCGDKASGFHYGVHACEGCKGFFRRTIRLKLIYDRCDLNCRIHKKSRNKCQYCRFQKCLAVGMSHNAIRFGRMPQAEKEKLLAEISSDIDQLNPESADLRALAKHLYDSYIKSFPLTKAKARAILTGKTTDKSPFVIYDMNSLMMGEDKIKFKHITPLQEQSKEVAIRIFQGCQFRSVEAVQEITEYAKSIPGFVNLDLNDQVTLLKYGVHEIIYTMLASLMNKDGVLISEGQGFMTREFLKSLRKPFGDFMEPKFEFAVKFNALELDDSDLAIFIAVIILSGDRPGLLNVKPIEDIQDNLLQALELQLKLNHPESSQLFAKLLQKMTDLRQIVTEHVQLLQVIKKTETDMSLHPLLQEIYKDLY
UniProt Q04206: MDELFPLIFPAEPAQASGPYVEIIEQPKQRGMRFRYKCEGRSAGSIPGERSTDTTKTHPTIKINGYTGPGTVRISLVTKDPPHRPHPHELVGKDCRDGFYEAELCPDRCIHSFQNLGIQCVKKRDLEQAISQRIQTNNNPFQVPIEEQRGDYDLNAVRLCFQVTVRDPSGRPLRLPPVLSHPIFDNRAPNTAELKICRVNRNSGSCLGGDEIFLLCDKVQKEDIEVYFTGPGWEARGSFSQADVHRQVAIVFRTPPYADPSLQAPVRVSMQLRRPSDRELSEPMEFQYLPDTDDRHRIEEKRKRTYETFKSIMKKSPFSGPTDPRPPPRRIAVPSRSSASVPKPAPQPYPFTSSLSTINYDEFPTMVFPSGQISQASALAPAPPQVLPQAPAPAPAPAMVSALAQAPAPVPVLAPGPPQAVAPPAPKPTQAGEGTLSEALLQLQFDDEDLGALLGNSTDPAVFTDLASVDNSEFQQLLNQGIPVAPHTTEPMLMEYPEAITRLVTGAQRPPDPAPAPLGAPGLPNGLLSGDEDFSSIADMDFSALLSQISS

No constants are given. Whether binding was seen depends on the method and setting. Binding seen in cells or lysates may run through a third protein. Some entries that bind do so weakly or less than the wild type.

This test deals with peroxisome proliferator-activated receptor-γ (human (endogenous in primary chondrocytes)) (UniProt P37231). As to the kind of experiment: co-IP; endogenous proteins of human chondrocytes treated with 10 μg/ml poly(I:C), pretreated with or without the p38 MAPK inhibitor SB202190; lysed in RIPA buffer (pH 7.4) with protease inhibitors; 20 μg total protein for immunoprecipitation; immunoblot. A general note: Immunoblotting shows a protein as a band on a membrane.

For p65 (from UniProt Q04206 1-551), the binding result is on record as “binds”.
